Test results reported in PMC4749301.
Results are given in words; binding and its absence hold for the method and conditions named. In cells and extracts the contact can be indirect. Some binding calls cover weakened binding; strength is not graded here. Where a sequence is shown, tags or fusion partners need not be part of it. One block for each molecule: values may come before it.

By UniProt entry, the sequences of proteins in these tests, tags left out. Where a name states a change or a piece, a line headed by the entry shows the natural chain unless it says otherwise.
UniProt O16844: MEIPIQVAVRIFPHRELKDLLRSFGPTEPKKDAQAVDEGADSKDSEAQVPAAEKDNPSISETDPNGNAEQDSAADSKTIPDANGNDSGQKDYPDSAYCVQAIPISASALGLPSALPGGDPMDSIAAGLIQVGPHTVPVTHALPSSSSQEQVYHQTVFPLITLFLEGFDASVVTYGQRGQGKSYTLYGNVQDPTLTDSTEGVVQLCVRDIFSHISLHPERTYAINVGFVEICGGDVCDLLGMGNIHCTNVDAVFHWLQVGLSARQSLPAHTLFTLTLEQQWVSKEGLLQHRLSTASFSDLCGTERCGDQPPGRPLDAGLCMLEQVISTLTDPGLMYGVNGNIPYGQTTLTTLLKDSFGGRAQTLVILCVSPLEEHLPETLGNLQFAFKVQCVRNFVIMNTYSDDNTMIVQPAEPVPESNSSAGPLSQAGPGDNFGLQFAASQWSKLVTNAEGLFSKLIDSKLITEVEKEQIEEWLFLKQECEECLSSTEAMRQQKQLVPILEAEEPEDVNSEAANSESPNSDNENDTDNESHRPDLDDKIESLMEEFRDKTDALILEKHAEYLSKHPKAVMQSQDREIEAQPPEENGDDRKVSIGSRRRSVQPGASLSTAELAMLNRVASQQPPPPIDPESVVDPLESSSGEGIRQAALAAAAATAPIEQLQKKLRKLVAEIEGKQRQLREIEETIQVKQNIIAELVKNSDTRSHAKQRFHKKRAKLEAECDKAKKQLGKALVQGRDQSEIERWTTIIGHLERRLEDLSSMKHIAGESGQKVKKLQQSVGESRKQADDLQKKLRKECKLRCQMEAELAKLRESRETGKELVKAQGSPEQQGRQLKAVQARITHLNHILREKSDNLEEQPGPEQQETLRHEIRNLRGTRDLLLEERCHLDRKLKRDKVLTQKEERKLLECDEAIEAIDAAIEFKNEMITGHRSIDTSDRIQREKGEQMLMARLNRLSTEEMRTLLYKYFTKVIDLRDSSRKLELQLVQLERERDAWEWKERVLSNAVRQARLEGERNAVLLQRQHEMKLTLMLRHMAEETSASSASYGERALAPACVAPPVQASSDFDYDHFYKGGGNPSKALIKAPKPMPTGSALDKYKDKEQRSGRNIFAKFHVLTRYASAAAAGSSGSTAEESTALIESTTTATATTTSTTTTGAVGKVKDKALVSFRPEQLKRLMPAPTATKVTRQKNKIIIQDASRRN

Key:
[1] = target: T1, Myc-Smo^WT (Myc-tagged wild-type Drosophila Smoothened) (Drosophila) (UniProt P91682); assay: co-IP; S2 cells transfected with the indicated constructs, treated with Hh-conditioned medium and/or PI(4)P; immunoprecipitation with anti-Myc to detect Smo-bound Cos2 and Fu
T1 sequence: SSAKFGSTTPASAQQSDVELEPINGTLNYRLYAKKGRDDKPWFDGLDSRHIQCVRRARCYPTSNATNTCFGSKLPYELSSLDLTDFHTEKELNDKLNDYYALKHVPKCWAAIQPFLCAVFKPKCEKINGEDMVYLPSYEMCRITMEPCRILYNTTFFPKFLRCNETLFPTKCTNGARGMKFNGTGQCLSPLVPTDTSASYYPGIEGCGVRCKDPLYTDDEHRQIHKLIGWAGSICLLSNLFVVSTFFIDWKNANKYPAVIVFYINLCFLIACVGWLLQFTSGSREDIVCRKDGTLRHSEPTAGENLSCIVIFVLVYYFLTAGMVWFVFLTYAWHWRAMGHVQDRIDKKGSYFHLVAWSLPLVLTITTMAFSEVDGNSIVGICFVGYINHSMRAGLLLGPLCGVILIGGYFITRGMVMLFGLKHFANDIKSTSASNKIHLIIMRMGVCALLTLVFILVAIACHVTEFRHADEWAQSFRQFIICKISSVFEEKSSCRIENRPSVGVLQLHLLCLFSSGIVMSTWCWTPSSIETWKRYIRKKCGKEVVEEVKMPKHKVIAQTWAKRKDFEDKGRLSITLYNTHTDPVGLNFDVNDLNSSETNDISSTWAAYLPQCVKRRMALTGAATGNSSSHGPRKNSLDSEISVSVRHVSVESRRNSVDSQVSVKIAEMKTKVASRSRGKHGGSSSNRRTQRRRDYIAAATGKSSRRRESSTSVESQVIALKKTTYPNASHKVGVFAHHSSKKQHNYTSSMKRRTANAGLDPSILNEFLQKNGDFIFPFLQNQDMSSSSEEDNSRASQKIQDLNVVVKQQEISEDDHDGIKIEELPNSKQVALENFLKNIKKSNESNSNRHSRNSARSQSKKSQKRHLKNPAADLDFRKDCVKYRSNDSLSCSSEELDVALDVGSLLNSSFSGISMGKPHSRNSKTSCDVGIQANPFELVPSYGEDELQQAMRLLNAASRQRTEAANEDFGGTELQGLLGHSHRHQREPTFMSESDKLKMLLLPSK

[2] = target: Smo^WT with CFP or YFP tagged to its C-terminus (Drosophila) (UniProt P91682); assay: FRET or BRET; FRET efficiency between Smo tagged with CFP or YFP at the C-terminus in transfected S2 cells; Hh-conditioned or control medium, carrier 3 or carrier 3 plus PI(4)P

binding [1]: binds
Molecule: Costal2-Fused (Cos2-Fu) protein complex (from UniProt O16844 1-1201; P23647 1-805)

binding [2]: binds
B1: Smo^WT with CFP or YFP tagged to its C-terminus (receptor, UniProt P91682 32-1036)
chain: T1 sequence
